According to the supplement of paper PMC12889115:
This is one part of the list. Values are raw readings; no control value is given beside them.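 Primary screen: polymyxin B was added at a level permeabilizing Salmonella outer membranes while sparing inner membranes. DMSO wells, both with and without polymyxin B, established maximum growth. Plate-to-plate variation meant each plate was ranked on its own, and the lowest-OD600 compounds were selected as hits.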

Test system: Salmonella enterica serovar Typhimurium SL1344
Assay: bacterial growth OD600 after 18 h with compound and polymyxin B; higher = more bacterial growth (less inhibition)
Settings: 50 µM, Mueller-Hinton broth

| Structure (SMILES) | bacterial growth OD600 (polymyxin B 0.75 µg/mL) | bacterial growth OD600 (polymyxin B 1 µg/mL) |
| --- | --- | --- |
| c1cnc(N2CCC(C3CCN(C4CSCCSC4)C3)CC2)nc1 (stereo not given) | 0.794 |  |
| COc1ccc(CN2CCN(Cc3ccc(O)cc3)CC2CCO)c(F)c1 (stereo not given) |  | 0.89 |
| CCn1ccnc1CN1CCC(CCC(=O)Nc2ccc(OC)cc2OC)CC1 |  | 1.01 |
| Cc1ccccc1-n1cc(CN(C)C(=O)CCC2(Cc3ccc(Cl)cc3)CCC(=O)N2)cn1 (stereo not given) | 0.847 |  |
| Cc1cc(CN2CCC(N3CCC(C(=O)NCc4cccnc4)CC3)CC2)oc1C |  | 0.796 |
| CN(C(=O)c1ccco1)C(Cc1ccccc1Cl)C1CCN(Cc2ccccc2F)CC1 (stereo not given) | 0.796 |  |
| COc1ccc(S(=O)(=O)NCC2CCCN(C(=O)c3ccccc3N(C)C)C2)cc1 (stereo not given) | 0.836 |  |
| COC(=O)CN(C)C(=O)c1ccc(OC2CCN(C(=O)C3CC3)CC2)cc1 |  | 0.934 |
| CCn1ccnc1CN(C)c1ccc(-c2nc(COC)no2)cn1 |  | 1.02 |
| Cc1nc(CC(=O)NCc2cccnc2Oc2ccccc2)cs1 |  | 0.836 |
| CCN(CC)CC(=O)NC1CCCN(C2CCCCCC2)C1 (stereo not given) | 0.818 |  |
| COc1ccc(F)c(CC2(CCC(=O)N3CCC(C(O)c4ccccc4)CC3)CCC(=O)N2)c1 (stereo not given) | 0.813 |  |
| COc1cccc(C2CCCCN2Cc2nc(-c3ccc(F)c(OC)c3)oc2C)c1 (stereo not given) |  | 0.671 |
| COc1ccccc1OCC(=O)NCC1CCCN(Cc2ccc(SC)cc2)C1 (stereo not given) |  | 0.905 |
| CCC(O)CNC(=O)CCc1nnc(C2(c3ccc(Cl)cc3)CCC2)o1 (stereo not given) |  | 0.963 |
| COc1ccc(CC(=O)NCC2CCCN(C(=O)CSC)C2)cc1 (stereo not given) | 0.854 |  |
| COCCC(=O)NC1CC(=O)N(CCc2ccccc2)C1 (stereo not given) |  | 1.1 |
| CN(Cc1ccc(F)cc1)c1ccc(OCC(=O)NCC2(N3CCOCC3)CCCCC2)nn1 | 0.012 |  |
| CO[C@H]1[C@H](NC(=O)CSC)c2ccccc2C12CCN(Cc1ccc(N3CCCC3)cc1)CC2 | 0.003 |  |
| COCCN1C(=O)CC(CC(=O)N2CCCC(c3cccc(C)c3)C2)(c2ccccc2OC)C1=O (stereo not given) | 0.002 |  |
| CCOC(=O)N1CCN(C(=O)c2ccc(N3CCC(NCCCN4CCCC4=O)CC3)cc2)CC1 | 0.758 |  |
| O=C(c1ccccc1OC1CCN(Cc2cc3ccccc3o2)CC1)N1CCCC1 |  | 0.912 |
| Cc1cc(C)nc(CNc2nncc(-c3cc4ccccc4o3)n2)n1 | 0.8 |  |
| COc1ccc(CN(C)Cc2nc(Cc3ccccc3Cl)no2)cc1OC |  | 0.903 |
| CN(C)c1cc(N2CCC(C3CCN(Cc4cccnc4)CC3)C2)ncn1 (stereo not given) | 0.903 |  |
| O=C(CSc1ccc2nnc(-c3cccnc3)n2n1)NCC1(N2CCOCC2)CCCCCC1 | 0.912 |  |
| COc1ccc(S(=O)(=O)NCC2CCCN(Cc3cc(C(C)C)[nH]n3)C2)cc1 (stereo not given) | 1 |  |
| Cc1ccccc1CCN1CCCC(CN(C)C(=O)Cc2ccsc2)C1 (stereo not given) |  | 0.776 |
| COc1cccc(OCc2cc(C(=O)NCC(C)c3ccccc3)no2)c1 (stereo not given) | 0.561 |  |
| CC#CCN1C(=O)NC(Cc2cccc(F)c2)(C2CCN(C(=O)CC3=CCCCC3)CC2)C1=O (stereo not given) | 0.832 |  |

Two neighbouring compounds out of the list so far:

| Structure (SMILES) | bacterial growth OD600 (polymyxin B 0.75 µg/mL) | bacterial growth OD600 (polymyxin B 1 µg/mL) |
| --- | --- | --- |
| CN(C)c1cc(N2CCC(C3CCN(Cc4cccnc4)CC3)C2)ncn1 (stereo not given) | 0.903 |  |
| O=C(CSc1ccc2nnc(-c3cccnc3)n2n1)NCC1(N2CCOCC2)CCCCCC1 | 0.912 |  |
